Experimental findings from US20040077549A1 (priority 2000, published 2004) are described below.

This data set is described as follows: general procedure: Fmoc solid-phase peptide synthesis; Fmoc-Gly-SASRIN; HBTU. To be noted: whole synthesis, side-chain lactam ring, sequence written open.

“Cpr-Lys-(CH(CH3)(C13H27))-Lys-(Lys-Leu-Phe-Gly)” yielded a crude mass of 1.2 g and an isolated mass of 480 mg. The isolated yield (overall) is reported as 24%.
